The target in this test is T1, FLAG-tagged LRIF1 (ligand-dependent nuclear receptor-interacting factor 1), shRNA-resistant, full-length (human) (UniProt Q5T3J3).
T1 sequence: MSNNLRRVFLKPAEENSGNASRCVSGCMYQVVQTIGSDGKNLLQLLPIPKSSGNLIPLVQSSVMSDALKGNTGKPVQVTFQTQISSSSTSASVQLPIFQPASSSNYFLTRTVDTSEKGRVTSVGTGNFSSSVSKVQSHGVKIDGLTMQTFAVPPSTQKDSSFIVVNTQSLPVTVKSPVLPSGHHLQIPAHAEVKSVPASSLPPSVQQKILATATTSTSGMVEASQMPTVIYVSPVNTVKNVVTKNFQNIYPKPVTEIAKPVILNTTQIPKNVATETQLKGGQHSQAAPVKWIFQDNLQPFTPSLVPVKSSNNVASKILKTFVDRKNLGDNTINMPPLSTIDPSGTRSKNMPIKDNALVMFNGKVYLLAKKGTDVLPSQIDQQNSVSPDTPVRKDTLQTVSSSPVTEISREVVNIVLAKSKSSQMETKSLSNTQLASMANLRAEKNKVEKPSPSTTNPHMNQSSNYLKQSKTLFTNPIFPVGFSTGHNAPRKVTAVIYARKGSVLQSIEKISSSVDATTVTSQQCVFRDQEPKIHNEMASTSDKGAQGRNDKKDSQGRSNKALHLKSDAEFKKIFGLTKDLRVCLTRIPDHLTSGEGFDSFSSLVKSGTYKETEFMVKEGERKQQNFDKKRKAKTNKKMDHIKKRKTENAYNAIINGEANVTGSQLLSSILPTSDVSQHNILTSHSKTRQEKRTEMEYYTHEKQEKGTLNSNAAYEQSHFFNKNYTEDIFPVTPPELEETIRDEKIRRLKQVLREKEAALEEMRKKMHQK
Briefly: co-IP; anti-FLAG antibody (or IgG) on NP-40 lysates of HEK293 cells transfected with FLAG-LRIF1, m1 or m2, 48 h after transfection; protein A/G magnetic beads, 4°C; Western blot.

Protein sequences, listed by entry. Tags and fused reporters are not part of them.
UniProt A6NHR9: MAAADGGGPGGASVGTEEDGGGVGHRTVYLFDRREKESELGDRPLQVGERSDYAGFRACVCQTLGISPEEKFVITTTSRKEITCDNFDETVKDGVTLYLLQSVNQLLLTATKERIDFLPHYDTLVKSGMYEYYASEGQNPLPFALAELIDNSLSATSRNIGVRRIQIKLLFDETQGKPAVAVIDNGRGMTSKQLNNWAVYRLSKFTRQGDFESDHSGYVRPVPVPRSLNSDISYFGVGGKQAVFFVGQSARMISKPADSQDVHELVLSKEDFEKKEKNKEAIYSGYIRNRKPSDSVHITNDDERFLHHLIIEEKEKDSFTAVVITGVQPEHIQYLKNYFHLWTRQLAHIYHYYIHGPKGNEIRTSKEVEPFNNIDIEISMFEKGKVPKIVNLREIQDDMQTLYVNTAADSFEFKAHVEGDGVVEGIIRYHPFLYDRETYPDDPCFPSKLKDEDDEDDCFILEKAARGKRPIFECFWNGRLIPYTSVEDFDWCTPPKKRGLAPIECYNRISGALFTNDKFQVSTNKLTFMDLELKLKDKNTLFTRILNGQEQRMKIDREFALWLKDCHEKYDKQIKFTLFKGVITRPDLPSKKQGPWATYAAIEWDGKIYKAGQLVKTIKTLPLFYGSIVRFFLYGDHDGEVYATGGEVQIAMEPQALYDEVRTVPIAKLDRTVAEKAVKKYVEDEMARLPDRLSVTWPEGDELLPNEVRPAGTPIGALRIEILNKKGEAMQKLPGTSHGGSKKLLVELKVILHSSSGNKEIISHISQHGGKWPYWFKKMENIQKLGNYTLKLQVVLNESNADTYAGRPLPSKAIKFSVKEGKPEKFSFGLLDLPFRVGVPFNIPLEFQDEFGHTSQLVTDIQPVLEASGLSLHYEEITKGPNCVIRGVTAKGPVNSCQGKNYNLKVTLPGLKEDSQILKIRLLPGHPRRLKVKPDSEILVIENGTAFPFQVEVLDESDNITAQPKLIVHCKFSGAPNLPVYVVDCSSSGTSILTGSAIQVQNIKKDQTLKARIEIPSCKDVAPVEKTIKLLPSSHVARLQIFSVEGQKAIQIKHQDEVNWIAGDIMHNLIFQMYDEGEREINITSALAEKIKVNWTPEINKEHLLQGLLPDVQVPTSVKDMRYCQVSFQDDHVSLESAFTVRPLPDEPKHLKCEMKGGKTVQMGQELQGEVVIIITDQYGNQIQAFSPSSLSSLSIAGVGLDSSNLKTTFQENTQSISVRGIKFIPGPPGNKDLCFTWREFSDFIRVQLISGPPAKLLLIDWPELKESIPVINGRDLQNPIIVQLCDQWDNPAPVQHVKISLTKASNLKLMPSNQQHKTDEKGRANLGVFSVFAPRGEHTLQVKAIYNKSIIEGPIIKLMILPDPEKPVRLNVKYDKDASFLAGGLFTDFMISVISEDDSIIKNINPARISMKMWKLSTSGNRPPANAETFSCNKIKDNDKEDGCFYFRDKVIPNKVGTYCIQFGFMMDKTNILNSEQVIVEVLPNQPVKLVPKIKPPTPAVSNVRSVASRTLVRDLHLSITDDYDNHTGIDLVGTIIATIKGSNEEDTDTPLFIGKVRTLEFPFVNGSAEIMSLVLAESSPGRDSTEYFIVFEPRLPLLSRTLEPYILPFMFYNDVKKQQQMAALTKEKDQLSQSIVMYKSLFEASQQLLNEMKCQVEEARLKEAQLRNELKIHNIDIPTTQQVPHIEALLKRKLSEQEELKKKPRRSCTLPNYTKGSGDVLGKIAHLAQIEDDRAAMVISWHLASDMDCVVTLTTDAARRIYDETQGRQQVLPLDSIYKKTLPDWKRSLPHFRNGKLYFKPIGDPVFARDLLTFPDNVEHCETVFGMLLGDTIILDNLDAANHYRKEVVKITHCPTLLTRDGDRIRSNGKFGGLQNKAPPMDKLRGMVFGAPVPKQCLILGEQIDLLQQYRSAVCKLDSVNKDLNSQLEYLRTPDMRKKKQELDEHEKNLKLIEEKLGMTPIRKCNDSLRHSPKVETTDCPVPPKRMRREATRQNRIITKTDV

These are yes or no findings as the source states them, for the method shown. In cells and extracts the contact can be indirect. Some binding calls cover weakened binding; strength is not graded here. Tags and fused reporters may be left off the sequences shown.

Consider “SMCHD1 (Structural Maintenance of Chromosomes Hinge Domain 1), endogenous (from UniProt A6NHR9 1-2005)”, for which the binding result is reported as “binds”.

(Values after PMC11257396.)
